PubChem BioAssay AID1053208, Peter MacCallum Cancer Centre – 2014

Aim: 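Synthetic lethal interactions between gene loss and doxorubicin in osteosarcoma cells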 (primary screen)
Cell system: mouse osteosarcoma cells, early-passage culture from an engineered mouse model of fibroblastic bone tumour
Reagents: siRNA pool against mouse genes, 40 nM
Duration: about 120 h (48 h before drug, then 72 h with drug)
Challenge: doxorubicin 100 nM for 72 h, roughly 30-40% inhibitory dose
Read-out: 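Luminescent ATP signal taken as viability with or without 100 nM doxorubicin for 72 h; mean of two wells set against non-targeting siRNA and turned into robust z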
Direction: viability z-score with doxorubicin: higher = more viable cells under doxorubicin; viability z-score without drug: higher = more viable cells with knock-down alone; z-score of drug to no-drug ratio: higher = less drug sensitisation by knock-down
Call rule: 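Called active if knock-down leaves viability unchanged without drug (z within -2 to 2) but lowers it with doxorubicin (z at or under -2)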
The deposit covers about 17,000 reagents; shown is a part drawn at random. Of all reagents, 788 (4.7%) were called active. 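Calls rest on z-score classes alone; an extra cut-off of viability at most 70% of control was not applied to them.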 Further read-outs or replicates are left out here.

The first 3 entries, to show the layout:
| gene symbol | combined z-score class | viability z-score with doxorubicin | viability z-score without drug | z-score of drug to no-drug ratio | activity call |
| --- | --- | --- | --- | --- | --- |
| Arrdc1 (GeneID 215705) | no change with or without drug | -0.9 | 0.34 | -1.01 | inactive |
| Mdp1 (GeneID 67881) | no change with or without drug | -1.57 | -0.17 | -1.46 | inactive |
| Gdap1 (GeneID 14545) | no change with or without drug | 0.9 | -0.67 | 1.57 | inactive |

Main list, from the first entry:
| gene symbol | combined z-score class | viability z-score with doxorubicin | viability z-score without drug | z-score of drug to no-drug ratio | activity call |
| --- | --- | --- | --- | --- | --- |
| Arrdc1 (GeneID 215705) | no change with or without drug | -0.9 | 0.34 | -1.01 | inactive |
| Mdp1 (GeneID 67881) | no change with or without drug | -1.57 | -0.17 | -1.46 | inactive |
| Gdap1 (GeneID 14545) | no change with or without drug | 0.9 | -0.67 | 1.57 | inactive |
| Dlx3 (GeneID 13393) | no change with or without drug | -0.11 | -0.17 | 0.11 | inactive |
| Pirt (GeneID 193003) | no change with or without drug | 0.11 | 0 | 0.22 | inactive |
| Strip1 (GeneID 229707) | high cell count without drug only | -0.9 | 2.19 | -2.02 | inactive |
| Hycc1 (GeneID 84652) | no change with or without drug | 0.9 | 0.51 | 0.67 | inactive |
| Nck2 (GeneID 17974) | no change with or without drug | 0.9 | -1.35 | 2.14 | inactive |
| Cdc45 (GeneID 12544) | low cell count with and without drug | -3.82 | -2.36 | -2.7 | inactive |
| Cdkn1c (GeneID 12577) | no change with or without drug | -0.67 | 0.84 | -1.12 | inactive |
| 5330439M10Rik (GeneID 78237) | high cell count with doxorubicin only | 2.47 | 1.85 | 1.24 | inactive |
| Piwil2 (GeneID 57746) | no change with or without drug | 0.79 | 1.52 | -0.11 | inactive |
| Srsf10 (GeneID 14105) | no change with or without drug | -0.22 | -0.84 | 0.45 | inactive |
| Cyp2s1 (GeneID 74134) | no change with or without drug | -0.67 | 0.34 | -0.79 | inactive |
| E230001N04Rik (GeneID 320187) | no change with or without drug | 0.22 | 1.35 | -0.56 | inactive |
| Dcdc2a (GeneID 195208) | no change with or without drug | -0.22 | 0.84 | -0.67 | inactive |
| Itprid2 (GeneID 70599) | no change with or without drug | 1.12 | 0.34 | 1.01 | inactive |
| Ckb (GeneID 12709) | no change with or without drug | -0.45 | -1.52 | 0.79 | inactive |
| Zfp740 (GeneID 68744) | no change with or without drug | -0.22 | 0.34 | -0.34 | inactive |
| Kmt5a (GeneID 67956) | low cell count with and without drug | -4.27 | -3.2 | -2.7 | inactive |
| Fau (GeneID 14109) | low cell count with and without drug | -5.4 | -4.05 | -3.71 | inactive |
| Fndc4 (GeneID 64339) | no change with or without drug | 0 | 0.67 | -0.34 | inactive |
| Tlr7 (GeneID 170743) | no change with or without drug | -0.79 | -0.17 | -0.56 | inactive |
| Klf9 (GeneID 16601) | no change with or without drug | -0.79 | -0.51 | -0.34 | inactive |
| Or4b1 (GeneID 258987) | no change with or without drug | -0.79 | -0.67 | -0.22 | inactive |
| Gngt1 (GeneID 14699) | no change with or without drug | -0.45 | -0.67 | 0.11 | inactive |
| Xrn2 (GeneID 24128) | no change with or without drug | 1.91 | 0.84 | 1.46 | inactive |
| Btd (GeneID 26363) | no change with or without drug | 0.56 | 0.84 | 0.11 | inactive |
| B4galt2 (GeneID 53418) | no change with or without drug | 1.57 | -0.51 | 2.14 | inactive |
| Pigc (GeneID 67292) | no change with or without drug | -1.57 | 0.34 | -1.8 | inactive |
| Phf14 (GeneID 75725) | high cell count without drug only | 1.46 | 3.04 | -0.34 | inactive |
| Phox2a (GeneID 11859) | no change with or without drug | 0 | 0.17 | 0 | inactive |
| Tmem14c (GeneID 66154) | high cell count with doxorubicin only | 2.14 | 0.17 | 2.25 | inactive |
| Epsti1 (GeneID 108670) | no change with or without drug | -1.46 | 1.52 | -2.25 | inactive |
